This passage reports log2 fold change results from the supplement of paper PMC10849652.

The chains behind the UniProt entries cited, without tags or fusion partners. Where a name states a change or a piece, a line headed by the entry shows the natural chain unless it says otherwise.
UniProt Q8TDJ6, whole entry, looked up: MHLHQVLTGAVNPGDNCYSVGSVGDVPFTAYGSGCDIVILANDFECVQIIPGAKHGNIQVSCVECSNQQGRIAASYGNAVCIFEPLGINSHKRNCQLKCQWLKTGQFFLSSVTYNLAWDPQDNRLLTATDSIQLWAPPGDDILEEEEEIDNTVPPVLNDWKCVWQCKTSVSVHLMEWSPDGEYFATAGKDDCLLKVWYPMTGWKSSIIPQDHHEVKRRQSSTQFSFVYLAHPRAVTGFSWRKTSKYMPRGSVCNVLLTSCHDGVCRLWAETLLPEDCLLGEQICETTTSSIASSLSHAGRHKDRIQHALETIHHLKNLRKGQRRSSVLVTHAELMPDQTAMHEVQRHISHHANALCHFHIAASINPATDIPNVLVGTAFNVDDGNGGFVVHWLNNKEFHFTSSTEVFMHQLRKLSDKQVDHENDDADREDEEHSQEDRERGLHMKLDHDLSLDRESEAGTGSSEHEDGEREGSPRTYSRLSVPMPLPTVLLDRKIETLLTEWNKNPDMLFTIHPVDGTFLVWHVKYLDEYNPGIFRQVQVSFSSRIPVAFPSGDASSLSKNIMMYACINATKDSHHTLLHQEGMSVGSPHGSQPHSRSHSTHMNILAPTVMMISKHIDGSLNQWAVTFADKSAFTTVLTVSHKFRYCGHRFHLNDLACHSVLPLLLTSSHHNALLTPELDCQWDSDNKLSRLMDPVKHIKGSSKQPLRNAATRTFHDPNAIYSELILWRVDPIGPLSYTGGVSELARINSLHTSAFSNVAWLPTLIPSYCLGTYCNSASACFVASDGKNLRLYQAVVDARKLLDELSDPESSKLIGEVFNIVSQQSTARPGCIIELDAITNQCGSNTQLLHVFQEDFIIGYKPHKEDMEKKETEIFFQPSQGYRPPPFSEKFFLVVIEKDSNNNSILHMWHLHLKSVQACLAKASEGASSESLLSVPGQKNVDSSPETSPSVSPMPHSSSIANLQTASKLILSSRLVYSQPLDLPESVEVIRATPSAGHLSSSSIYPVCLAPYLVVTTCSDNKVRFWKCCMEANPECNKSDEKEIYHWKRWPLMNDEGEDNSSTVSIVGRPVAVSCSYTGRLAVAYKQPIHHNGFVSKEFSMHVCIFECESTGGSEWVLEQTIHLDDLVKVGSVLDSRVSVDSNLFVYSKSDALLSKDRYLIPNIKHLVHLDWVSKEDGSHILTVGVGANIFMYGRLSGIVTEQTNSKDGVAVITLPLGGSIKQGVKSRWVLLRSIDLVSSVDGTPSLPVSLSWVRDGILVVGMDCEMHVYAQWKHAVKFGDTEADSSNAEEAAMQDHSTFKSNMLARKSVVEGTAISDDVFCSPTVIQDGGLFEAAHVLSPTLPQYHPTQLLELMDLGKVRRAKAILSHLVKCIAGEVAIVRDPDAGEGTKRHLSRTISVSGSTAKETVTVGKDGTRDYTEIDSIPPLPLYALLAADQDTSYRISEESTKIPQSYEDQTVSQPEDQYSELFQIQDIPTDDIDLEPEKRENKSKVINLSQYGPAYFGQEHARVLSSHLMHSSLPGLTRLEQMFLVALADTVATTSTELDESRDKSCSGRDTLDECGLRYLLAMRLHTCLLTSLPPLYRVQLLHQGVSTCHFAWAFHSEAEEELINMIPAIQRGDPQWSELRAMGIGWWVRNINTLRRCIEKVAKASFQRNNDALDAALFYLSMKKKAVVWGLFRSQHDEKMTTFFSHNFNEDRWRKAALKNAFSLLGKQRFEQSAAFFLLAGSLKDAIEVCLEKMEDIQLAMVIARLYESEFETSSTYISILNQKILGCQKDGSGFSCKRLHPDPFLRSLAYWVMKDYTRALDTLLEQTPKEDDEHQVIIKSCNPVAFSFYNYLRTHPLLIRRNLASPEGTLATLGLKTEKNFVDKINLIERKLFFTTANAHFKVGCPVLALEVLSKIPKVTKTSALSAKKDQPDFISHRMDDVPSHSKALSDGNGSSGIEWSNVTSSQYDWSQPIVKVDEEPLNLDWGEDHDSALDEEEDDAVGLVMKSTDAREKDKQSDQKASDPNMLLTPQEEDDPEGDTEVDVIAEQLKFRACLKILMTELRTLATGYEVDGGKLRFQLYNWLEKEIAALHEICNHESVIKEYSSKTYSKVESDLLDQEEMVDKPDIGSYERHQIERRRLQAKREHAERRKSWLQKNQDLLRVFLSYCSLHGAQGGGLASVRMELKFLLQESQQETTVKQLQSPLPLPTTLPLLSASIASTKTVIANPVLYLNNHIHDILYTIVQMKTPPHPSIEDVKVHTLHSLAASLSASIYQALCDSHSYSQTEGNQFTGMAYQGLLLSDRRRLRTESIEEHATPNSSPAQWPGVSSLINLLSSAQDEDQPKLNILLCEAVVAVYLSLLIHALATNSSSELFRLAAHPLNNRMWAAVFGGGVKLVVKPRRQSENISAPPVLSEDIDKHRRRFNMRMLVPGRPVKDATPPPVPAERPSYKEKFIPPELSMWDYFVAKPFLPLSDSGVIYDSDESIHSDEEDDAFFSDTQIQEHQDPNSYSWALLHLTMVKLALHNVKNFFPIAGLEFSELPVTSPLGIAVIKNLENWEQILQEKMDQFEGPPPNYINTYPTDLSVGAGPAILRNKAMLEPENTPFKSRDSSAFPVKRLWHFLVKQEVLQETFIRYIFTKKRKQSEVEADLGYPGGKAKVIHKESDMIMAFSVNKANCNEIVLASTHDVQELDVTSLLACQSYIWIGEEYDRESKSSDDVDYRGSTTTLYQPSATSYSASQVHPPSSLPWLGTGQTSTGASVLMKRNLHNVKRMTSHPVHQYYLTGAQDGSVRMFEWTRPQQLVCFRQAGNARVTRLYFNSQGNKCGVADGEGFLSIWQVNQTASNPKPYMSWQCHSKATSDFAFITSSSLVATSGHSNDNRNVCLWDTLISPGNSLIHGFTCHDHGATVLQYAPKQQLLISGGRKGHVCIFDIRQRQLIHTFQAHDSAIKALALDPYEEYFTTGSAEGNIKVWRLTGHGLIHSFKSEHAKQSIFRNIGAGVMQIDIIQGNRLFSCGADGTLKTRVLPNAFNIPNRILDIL
UniProt O00429, whole entry, looked up: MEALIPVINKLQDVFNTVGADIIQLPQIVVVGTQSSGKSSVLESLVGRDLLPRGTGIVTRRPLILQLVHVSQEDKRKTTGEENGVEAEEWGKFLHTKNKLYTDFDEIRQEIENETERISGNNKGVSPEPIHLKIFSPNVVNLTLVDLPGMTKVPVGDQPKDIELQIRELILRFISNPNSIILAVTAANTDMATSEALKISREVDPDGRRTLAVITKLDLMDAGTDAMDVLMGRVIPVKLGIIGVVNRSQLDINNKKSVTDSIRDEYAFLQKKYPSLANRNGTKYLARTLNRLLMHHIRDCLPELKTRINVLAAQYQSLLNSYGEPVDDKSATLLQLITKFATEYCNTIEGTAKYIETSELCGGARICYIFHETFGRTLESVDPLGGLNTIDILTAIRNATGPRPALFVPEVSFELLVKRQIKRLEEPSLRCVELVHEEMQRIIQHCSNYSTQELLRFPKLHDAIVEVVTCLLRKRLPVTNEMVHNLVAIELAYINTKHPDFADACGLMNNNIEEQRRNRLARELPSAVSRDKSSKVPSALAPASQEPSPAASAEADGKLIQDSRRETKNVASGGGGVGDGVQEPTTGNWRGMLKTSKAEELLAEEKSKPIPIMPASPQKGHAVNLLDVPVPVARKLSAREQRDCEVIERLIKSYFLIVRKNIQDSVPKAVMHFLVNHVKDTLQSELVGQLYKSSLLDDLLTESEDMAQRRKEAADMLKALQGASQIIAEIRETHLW
UniProt Q9H3Z4: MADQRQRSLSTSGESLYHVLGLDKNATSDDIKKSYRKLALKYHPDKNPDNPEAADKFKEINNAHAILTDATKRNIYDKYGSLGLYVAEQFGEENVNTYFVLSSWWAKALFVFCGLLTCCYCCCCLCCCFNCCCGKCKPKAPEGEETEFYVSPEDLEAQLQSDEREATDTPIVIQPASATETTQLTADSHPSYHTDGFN
UniProt Q9BTC0, whole entry, looked up: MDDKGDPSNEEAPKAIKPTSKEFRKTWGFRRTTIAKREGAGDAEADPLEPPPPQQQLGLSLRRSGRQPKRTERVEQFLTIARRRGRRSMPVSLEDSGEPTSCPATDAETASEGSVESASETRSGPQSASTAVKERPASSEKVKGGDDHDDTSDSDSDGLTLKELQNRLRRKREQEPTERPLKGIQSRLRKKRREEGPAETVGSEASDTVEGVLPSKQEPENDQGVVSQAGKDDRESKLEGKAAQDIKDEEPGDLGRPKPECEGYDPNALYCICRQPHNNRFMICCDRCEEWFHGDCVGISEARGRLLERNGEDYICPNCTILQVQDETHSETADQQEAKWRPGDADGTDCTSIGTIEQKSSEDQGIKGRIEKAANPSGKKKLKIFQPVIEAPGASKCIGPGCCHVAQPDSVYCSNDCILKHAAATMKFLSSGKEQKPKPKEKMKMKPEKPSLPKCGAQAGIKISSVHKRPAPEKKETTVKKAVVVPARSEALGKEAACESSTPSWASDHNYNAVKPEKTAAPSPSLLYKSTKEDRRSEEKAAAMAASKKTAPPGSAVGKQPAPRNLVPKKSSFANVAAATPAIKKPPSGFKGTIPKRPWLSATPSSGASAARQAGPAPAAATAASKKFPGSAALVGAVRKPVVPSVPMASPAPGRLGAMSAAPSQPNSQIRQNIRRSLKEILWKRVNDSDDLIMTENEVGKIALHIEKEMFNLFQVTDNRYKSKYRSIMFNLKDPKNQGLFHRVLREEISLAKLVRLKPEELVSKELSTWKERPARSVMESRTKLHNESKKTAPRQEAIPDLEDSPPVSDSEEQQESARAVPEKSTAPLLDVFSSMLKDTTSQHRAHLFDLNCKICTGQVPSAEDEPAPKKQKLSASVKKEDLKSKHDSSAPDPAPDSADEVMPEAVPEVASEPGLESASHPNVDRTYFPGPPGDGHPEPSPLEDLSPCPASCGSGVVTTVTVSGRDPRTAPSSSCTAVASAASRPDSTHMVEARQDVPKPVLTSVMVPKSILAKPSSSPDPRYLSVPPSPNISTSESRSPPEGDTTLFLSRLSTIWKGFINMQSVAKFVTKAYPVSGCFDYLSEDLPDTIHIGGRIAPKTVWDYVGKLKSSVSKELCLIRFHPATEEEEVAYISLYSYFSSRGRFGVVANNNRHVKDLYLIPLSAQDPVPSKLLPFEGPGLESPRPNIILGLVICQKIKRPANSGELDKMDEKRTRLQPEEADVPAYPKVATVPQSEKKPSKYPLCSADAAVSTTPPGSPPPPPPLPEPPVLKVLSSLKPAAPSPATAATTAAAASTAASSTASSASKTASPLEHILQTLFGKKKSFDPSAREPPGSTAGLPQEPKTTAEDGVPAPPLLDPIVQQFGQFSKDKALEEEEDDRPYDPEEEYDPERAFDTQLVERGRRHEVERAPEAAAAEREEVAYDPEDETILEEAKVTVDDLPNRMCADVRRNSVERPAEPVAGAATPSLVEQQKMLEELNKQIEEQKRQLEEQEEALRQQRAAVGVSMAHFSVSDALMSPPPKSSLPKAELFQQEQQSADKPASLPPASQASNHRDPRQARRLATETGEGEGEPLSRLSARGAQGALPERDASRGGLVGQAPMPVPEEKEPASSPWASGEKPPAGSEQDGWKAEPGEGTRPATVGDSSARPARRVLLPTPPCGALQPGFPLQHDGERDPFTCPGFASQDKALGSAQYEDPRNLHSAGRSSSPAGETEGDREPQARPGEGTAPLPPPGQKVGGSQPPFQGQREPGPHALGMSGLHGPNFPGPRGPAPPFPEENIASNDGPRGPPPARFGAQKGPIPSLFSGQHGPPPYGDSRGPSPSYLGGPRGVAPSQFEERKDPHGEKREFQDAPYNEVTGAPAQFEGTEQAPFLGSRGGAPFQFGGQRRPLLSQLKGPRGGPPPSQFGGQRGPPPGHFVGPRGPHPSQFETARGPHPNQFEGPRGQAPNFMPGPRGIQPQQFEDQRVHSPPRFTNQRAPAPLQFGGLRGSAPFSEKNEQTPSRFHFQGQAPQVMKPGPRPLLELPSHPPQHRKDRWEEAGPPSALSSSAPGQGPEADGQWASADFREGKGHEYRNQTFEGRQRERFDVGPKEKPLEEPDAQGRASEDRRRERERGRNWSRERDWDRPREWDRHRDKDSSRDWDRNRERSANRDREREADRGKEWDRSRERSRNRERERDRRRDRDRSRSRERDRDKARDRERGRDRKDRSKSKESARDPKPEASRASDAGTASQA
UniProt O00115: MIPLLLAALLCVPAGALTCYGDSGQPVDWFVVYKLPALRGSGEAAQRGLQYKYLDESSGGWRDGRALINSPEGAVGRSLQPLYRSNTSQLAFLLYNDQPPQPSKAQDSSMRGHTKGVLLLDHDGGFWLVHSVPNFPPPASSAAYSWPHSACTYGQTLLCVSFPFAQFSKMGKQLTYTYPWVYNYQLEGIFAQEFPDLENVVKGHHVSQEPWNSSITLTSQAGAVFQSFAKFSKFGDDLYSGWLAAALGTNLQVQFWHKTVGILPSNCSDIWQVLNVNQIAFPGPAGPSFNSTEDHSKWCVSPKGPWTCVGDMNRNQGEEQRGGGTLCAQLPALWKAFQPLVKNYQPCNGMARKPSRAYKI

Holding throughout (assay): log2 fold change, soluble protein after heating vs DMSO (PISA); higher = thermal stabilisation; K562 lysate, 10 uM; active = over 0.2 and 3.5 SD of the protein, either way, in both replicates (recomputed)
Compound in one experiment: CS(=O)(=O)CCNCc1ccc(-c2ccc3ncnc(Nc4ccc(OCc5cccc(F)c5)c(Cl)c4)c3c2)o1 [lapatinib]
An outline of the steps: (§1)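 Dounce homogenisation of K562 pellets in PBS pH 7.4 with 1 mM MgCl2 produced a crude extract, used at 1 mg/mL protein. Exposure to 10 μM compound lasted 30 min, and aliquots were then heated for 3 min across 48°C-58°C, pooled and brought to 0.5% NP-40 at 4°C. The supernatant after 21,000xg for 90 min was quantified by TMTpro 16plex LC-MS/MS with channel sums equalised. Duplicate values are given as log-two fold change in thermal stability relative to solvent controls.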

Compound in a further experiment: CS(=O)(=O)N1CCN(Cc2cc3nc(-c4cccc5[nH]ncc45)nc(N4CCOCC4)c3s2)CC1 [pictilisib]
An outline of the steps:
as §1

Compound in another experiment: C[C@@H](Oc1cc(-c2cnn(C3CCNCC3)c2)cnc1N)c1c(Cl)ccc(F)c1Cl [crizotinib]
An outline of the steps:
as §1

Compound in experiment [1]: C[C@H](C1=CC=C(C=C1)C(=O)NC2=C3C=CNC3=NC=C2)N
The gist of the method: as §1

Compound in another experiment: C[C@H](Nc1ncnc2nc[nH]c12)c1cc2cccc(Cl)c2c(=O)n1-c1ccccc1 [duvelisib]
The gist of the method: as §1

Compound in the next experiment: Cc1cc(Nc2cc(CN3CCOCC3)c3nc(C)c(Cc4ccc(Cl)cc4F)n3n2)n[nH]1 [gandotinib]
The gist of the method:
as §1

Compound in a further experiment: Cc1cc(Nc2cc(N3CCN(C)CC3)nc(Sc3ccc(NC(=O)C4CC4)cc3)n2)n[nH]1 [tozasertib]
The gist of the method: as §1

Compound in the next experiment: Cc1ccc(-n2nc(C(C)(C)C)cc2NC(=O)Nc2ccc(OCCN3CCOCC3)c3ccccc23)cc1 [doramapimod]
The gist of the method: as §1

Compound in a further experiment: Cc1ccc(NC(=O)c2ccc(CN3CC[C@H](N(C)C)C3)c(C(F)(F)F)c2)cc1Nc1nccc(-c2cncnc2)n1 [bafetinib]
The gist of the method:
as §1

Compound in experiment [2]: Cc1cccc(CC(=O)N2CCc3c2ccc(-c2cn(C)c4ncnc(N)c24)c3F)n1
The gist of the method: as §1

Compound in a further experiment: Cc1cn(-c2cc(NC(=O)c3ccc(C)c(Nc4nccc(-c5cccnc5)n4)c3)cc(C(F)(F)F)c2)cn1 [nilotinib]
The gist of the method: as §1

Compound in experiment [3]: Cc1nc(Nc2n[nH]c3c2CN(C(=O)N[C@H](CN(C)C)c2ccccc2)C3(C)C)c2sccc2n1
An outline of the steps: as §1

Compound in a further experiment: Cc1nc(Nc2ncc(C(=O)Nc3c(C)cccc3Cl)s2)cc(N2CCN(CCO)CC2)n1 [dasatinib]
An outline of the steps: as §1

Compound in experiment [4]: Cc1ncc(-c2ccnc(Nc3ccc(S(C)(=O)=O)cc3)n2)n1C(C)C
An outline of the steps: as §1

Compound in experiment [5]: Cn1cc(-c2ccc3c(c2)CCN3C(=O)Cc2cccc(C(F)(F)F)c2)c2c(N)ncnc21
An outline of the steps:
as §1

Compound in the next experiment: Cn1cc(CNCC2CCN(c3ncc(C(=O)NO)cn3)CC2)c2ccccc21 [quisinostat]
The gist of the method: as §1

Compound in another experiment: Cn1cncc1[C@@](N)(c1ccc(Cl)cc1)c1ccc2c(c1)c(-c1cccc(Cl)c1)cc(=O)n2C [tipifarnib]
The gist of the method: as §1

Compound in experiment [6]: NC(=O)Nc1cc(-c2cccc(F)c2)sc1C(=O)N[C@H]1CCCNC1
An outline of the steps: as §1

Compound in experiment [7]: NC(=O)c1cnc(N[C@@H]2CCCC[C@@H]2N)nc1Nc1cccc(-n2nccn2)c1
The gist of the method: as §1

Compound in experiment [8]: NC1(c2ccc(-c3nc4ccn5c(=O)[nH]nc5c4cc3-c3ccccc3)cc2)CCC1
The gist of the method:
as §1

The other results are listed elsewhere or left out.

For DMXL2 isoform 3 (UniProt Q8TDJ6), the log2 fold change was inactive: -0.008 with lapatinib; inactive: -0.138 with pictilisib; inactive: -0.041 in the experiment with crizotinib; inactive: 0.001 in experiment [1]; inactive: -0.074 in the experiment with duvelisib; inactive: -0.044 with gandotinib. The log2 fold change with tozasertib was inactive: 0.003; with doramapimod it was inactive: 0.06; with bafetinib, inactive: -0.052; in experiment [2], inactive: 0.003; with nilotinib, inactive: -0.008; in [3] it was inactive: -0.021. For the same target, the log2 fold change with dasatinib was inactive: -0.02; in [4], inactive: -0.031; in [5], inactive: 0.104; with quisinostat, inactive: -0.05; with tipifarnib it was inactive: -0.037; in experiment [6] it was inactive: 0.073. The log2 fold change in [7] is inactive: 0.009; in experiment [8], inactive: -0.023.

For DNM1L isoform 2 (UniProt O00429), the log2 fold change with lapatinib was inactive: 0.128; in the experiment with pictilisib, inactive: 0.001; in the experiment with crizotinib it was inactive: 0.11; in experiment [1] it was inactive: 0.029; in the experiment with duvelisib it was inactive: -0.03; with gandotinib, inactive: -0.015. Moreover, the log2 fold change with tozasertib was inactive: 0.052; in the experiment with doramapimod, inactive: 0.026; with bafetinib it was inactive: 0.077; in experiment [2], inactive: -0.016; with nilotinib, inactive: -0.16; in [3] it was inactive: 0.028. Besides, the log2 fold change is inactive: 0.053 with dasatinib; inactive: -0.074 in experiment [4]; inactive: 0.02 in experiment [5]; inactive: -0.131 with quisinostat; inactive: -0.069 in the experiment with tipifarnib; inactive: 0.007 in experiment [6]. The log2 fold change in experiment [7] is inactive: 0.066; in experiment [8], inactive: -0.073.

For the target DPCD (UniProt Q9BVM2), the log2 fold change with lapatinib is inactive: 0.049; with pictilisib, inactive: -0.015; with crizotinib, inactive: -0.04; in [1], inactive: -0.077; with duvelisib it was inactive: -0.032; in the experiment with gandotinib, inactive: -0.022. The log2 fold change is inactive: 0.091 with tozasertib; inactive: 0.048 with doramapimod; inactive: -0.07 with bafetinib; inactive: 0.064 in experiment [2]; inactive: -0.048 in the experiment with nilotinib; inactive: 0.048 in experiment [3]. Moreover, the log2 fold change with dasatinib is inactive: -0.024; in [4], inactive: -0.048; in experiment [5] it was inactive: -0.004; with quisinostat, inactive: -0.056; in the experiment with tipifarnib, inactive: 0.03; in experiment [6], inactive: 0.038. Further, the log2 fold change is inactive: -0.008 in experiment [7] and inactive: 0.013 in [8].

As to DNAJC5 (UniProt Q9H3Z4), the log2 fold change with lapatinib was inactive: -0.021; in the experiment with pictilisib it was inactive: 0.075; with crizotinib, inactive: 0.007; in experiment [1] it was active: -0.377; with duvelisib, inactive: -0.041; in the experiment with gandotinib, inactive: 0.161. Besides, the log2 fold change with tozasertib is inactive: -0.054; with doramapimod it was inactive: 0.023; with bafetinib it was inactive: -0.144; in experiment [2] it was active: 0.334; with nilotinib it was inactive: -0.136; in experiment [3] it was inactive: -0.043. For the same target, the log2 fold change with dasatinib is inactive: -0.002; in [4], inactive: 0.008; in experiment [5], inactive: -0.029; in the experiment with quisinostat, inactive: -0.05; with tipifarnib it was inactive: 0.043; in [6], inactive: -0.045. The log2 fold change in [7] was inactive: 0.062; in [8] it was inactive: 0.024.

With DIDO1 (UniProt Q9BTC0), the log2 fold change in the experiment with lapatinib was inactive: -0.005; with pictilisib, inactive: -0.024; with crizotinib, inactive: 0; in [1], inactive: 0.01; with duvelisib, inactive: -0.019; in the experiment with gandotinib it was inactive: 0.023. Further, the log2 fold change was inactive: 0.03 with tozasertib; inactive: -0.005 in the experiment with doramapimod; inactive: -0.189 with bafetinib; inactive: 0.071 in experiment [2]; inactive: 0.041 with nilotinib; inactive: -0.002 in experiment [3]. Also, the log2 fold change in the experiment with dasatinib was inactive: 0; in [4], inactive: 0.217; in [5], inactive: 0.005; in the experiment with quisinostat, inactive: -0.014; in the experiment with tipifarnib, inactive: -0.079; in experiment [6] it was inactive: -0.011. Besides, the figures for the log2 fold change in [7] and in [8] were inactive: -0.004 and inactive: 0.063, respectively.

As to DNASE2 (UniProt O00115), the log2 fold change with lapatinib is inactive: 0.006; in the experiment with pictilisib, inactive: -0.021; with crizotinib, inactive: 0.032; in [1], inactive: -0.034; in the experiment with duvelisib, inactive: -0.077; in the experiment with gandotinib it was inactive: 0.092. Also, the log2 fold change with tozasertib is inactive: 0.019; in the experiment with doramapimod, inactive: 0.053; in the experiment with bafetinib, inactive: 0.002; in experiment [2] it was inactive: -0.016; with nilotinib, inactive: 0.006; in experiment [3], inactive: 0.024. Further, the log2 fold change is inactive: 0.094 in the experiment with dasatinib; inactive: 0.028 in experiment [4]; inactive: -0.001 in experiment [5]; inactive: 0.094 with quisinostat; inactive: 0.019 in the experiment with tipifarnib; inactive: -0.069 in experiment [6]. The log2 fold change in experiment [7] was inactive: -0.034; in experiment [8] it was inactive: 0.028.

DNAJC12 (UniProt Q9UKB3): the log2 fold change was inactive: 0.05 with lapatinib; inactive: 0.002 with pictilisib; inactive: 0.025 with crizotinib; inactive: -0.026 in [1]; inactive: -0.016 in the experiment with duvelisib; inactive: 0.145 with gandotinib. Besides, the log2 fold change with tozasertib was inactive: 0.058; in the experiment with doramapimod, inactive: 0.034; with bafetinib, inactive: -0.002; in experiment [2], inactive: -0.018; with nilotinib it was inactive: -0.048; in experiment [3] it was inactive: 0.029. For the same target, the log2 fold change with dasatinib was inactive: 0.031; in experiment [4], inactive: -0.018; in [5], inactive: 0; with quisinostat, inactive: -0.007; with tipifarnib, inactive: -0.066; in experiment [6] it was inactive: -0.034. Further, the log2 fold change was inactive: 0.008 in experiment [7] and inactive: -0.001 in experiment [8].
